Reference: PubChem BioAssay AID504444 (National Center for Advancing Translational Sciences (NCATS), 2011)
Hit rate of the full screen: of about 360,000 compounds, about 7,500 (2.1%) were called active. The shares of active, inactive and inconclusive entries below differ from those in the screen. The call rests on the fitted dose curve; in most records, active means well fitted inhibition curve with a large enough effect; inconclusive means small, poorly fitted or top-dose-only effect, or effect the other way; inactive means flat fitted curve, though single readings scatter. A potency beside an inconclusive call is a rough fit, not a confirmed value.

Assay: Nrf2 qHTS screen for inhibitors; further: nearly all actives have a fitted effect of over 60% in size
Details: A549 ARE-Fluc reporter, luciferase luminescence, 18-24 h; activity change, negative = inhibition: at 46 µM (top of the series)
Summary of the method: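 In this cell-based qHTS, ARE-driven firefly luciferase in A549 cells reports Nrf2 activity; the luminescent signal after BugLite lysis is the measured value, with a prior CellTiter-Fluor read for cell health.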
On the % scale 0 is the no-effect control and ±100 the full control effect; potency means the concentration at half of the fitted maximal effect.

Compound | Potency | activity change, negative = inhibition
CCn1cc(C(=O)N2CCN(c3cccc(Cl)c3)CC2)c(=O)c2cc(S(=O)(=O)N3CCOCC3)ccc21 | inconclusive: 5.8 µM [falling, partial curve, poor fit] | –
C[C@@H]1CCCCCCCCC(=O)OCCN(C(=O)OC(C)(C)C)[C@H](C)CCCCCCCCC(=O)OCCN1C(=O)OC(C)(C)C | inconclusive: 10.3 µM [falling, single point] | –
COc1ccc2[nH]c(CN3CCN(CC(C)C)C(CCO)C3)c(C)c2c1 (configuration not stated) | inconclusive: 29.1 µM [activator, single point] | –
CCN1C(=NCc2ccco2)N[C@@H](c2cccc(F)c2)C(C(=O)OC)=C1C | inconclusive: 18.4 µM [activator, partial curve, poor fit] | –
CC(C)(C)c1ccc(-c2cc(N)n[nH]2)cc1 | inconclusive: 3.66 µM [falling, partial curve, poor fit] | –
Cc1ccc(S(=O)(=O)N2CCN(C(=O)C3CCN(c4ncnc5sc(C)c(C)c45)CC3)CC2)c(C)c1 | active: 8.2 µM | –
O=[N+]([O-])c1ccc(N/N=C2\CC3CC=CC23)cc1 (configuration not stated) | inconclusive: 29.1 µM [falling, single point] | –
Cc1[nH]c2ccc(-c3nnc(SCC(=O)NCc4ccco4)n3Cc3ccccc3)cc2c1C | inconclusive: 14.6 µM [falling, partial curve] | –
Cc1cc(=O)oc2c(CN(CC(C)C)CC(C)C)c(O)ccc12 | inactive | –
Cc1cccc(N2CCN(C(=O)c3c(-c4ccccc4)noc3C)CC2)c1C | inconclusive: 23.1 µM [falling, single point] | –
CCOc1ccc(NC(=O)c2ccc(NC(=O)CCS(=O)(=O)c3cccs3)cc2)cc1 | inconclusive: 16.4 µM [falling, partial curve, poor fit] | –
c1ccc(-c2nc3ccccc3[nH]2)nc1 | inactive | –
O=C(Nc1ccc(Br)c(Cl)c1)c1ccco1 | inconclusive: 4.47 µM [activator, single point] | –
COc1ccc(NC(=O)COc2ccccc2C)cc1S(=O)(=O)N1CCCCC1 | inconclusive: 29.1 µM [falling, single point] | –
Cc1ccc(O)c(NC(=S)NC(=O)/C=C/c2ccco2)c1 | inconclusive: 23.1 µM [activator, single point] | –
Cc1ccc(C(=O)Nc2c(-c3ccccc3)nc3ccccn23)cc1C | – | inactive: -4.89% [at 9.27 µM]
CC1(c2ccccc2)CC(C)(C)N(C(=O)C2CCCO2)c2ccccc21 (configuration not stated) | inconclusive: 18.4 µM [falling, single point] | –
CC(C)OC(=O)Cc1nc2sc(-c3ccccc3)cc2c(=O)[nH]1 | inconclusive: 29.1 µM [activator, partial curve, poor fit] | –
CCc1nnc(NC(=O)CSc2nnc(-c3cc4ccccc4cc3O)n2CC)s1 | inactive | –
O=C(COC(=O)Cc1ccsc1)Nc1ccc(Cl)cc1F | inconclusive: 18.4 µM [activator, partial curve, poor fit] | –
Cc1ccccc1-n1c(SCC(=O)Nc2ccccc2)nc2nc3c(cc2c1=O)CCCC3 | inconclusive: 23.1 µM [falling, single point] | –

Compound | Potency | activity change, negative = inhibition
CNC(=S)N1N=C(c2cccs2)CC1c1ccc(OC)cc1 (configuration not stated) | inconclusive: 18.4 µM [falling, partial curve, poor fit] | –
Cc1ccc(CNC(=O)Cn2c3ncccc3c(=O)n2-c2ccccc2)cc1 | inconclusive: 0.517 µM [falling, partial curve, poor fit] | –
O=C(CCNS(=O)(=O)c1ccc(Br)cc1)NC1CCCCC1 | inactive | –
O=C(CSc1ccc(-c2ccccn2)nn1)Nc1ccc(F)c(F)c1 | active: 3.26 µM | –
C=CCn1c(SCc2nc3ccccc3c(=O)[nH]2)nc2scc(C3CC3)c2c1=O | inconclusive: 29.1 µM [falling, single point] | –
Cc1cc(C)cc(NC(=O)Nc2c(Br)cnn2C)c1 | inactive | –
CSc1ccccc1NC(=O)c1cnc2sc(C)cn2c1=O | inconclusive: 1.84 µM [activator, partial curve, poor fit] | –
CC(C)=C1C2CCC1C1C(=O)N(c3nc(-c4ccc(F)cc4)c(C)s3)C(=O)C21 (configuration not stated) | inconclusive: 32.6 µM [falling, single point] | –
C=C[C@]1(C)C=C2CC[C@H]3[C@@](C)(CCC[C@@]3(C)C(=O)O)[C@@H]2CC1 | inactive | –
Cc1cc(NC(=O)C(C)Oc2ccc(Cl)cc2Cl)no1 (configuration not stated) | inconclusive: 32.6 µM [activator, single point] | –
CCCCn1c(N)c(N(CCC(C)C)C(=O)c2ccccc2-n2cnnn2)c(=O)[nH]c1=O | inactive | –
O=C(N/N=C/c1ccco1)c1cc(-c2ccc(Cl)s2)[nH]n1 | inconclusive: 9.2 µM [falling, partial curve, poor fit] | –
Cc1onc(-c2ccccc2Cl)c1C(=O)OCC(=O)N1CCCc2ccccc21 | inconclusive: 29.1 µM [falling, single point] | –
COc1ccc(NC(=S)N2CCN(C(=O)C3CCCO3)CC2)cc1 (configuration not stated) | inactive | –
CC(C)CC1Nc2ncnc(N3CCN(c4ccccn4)CC3)c2N(Cc2ccc(Br)cc2)C1=O (configuration not stated) | inconclusive: 16.4 µM [falling, single point] | –
NC(=O)c1ccsc1NC(=O)c1ccc(S(=O)(=O)N2CCCC2)cc1 | inactive | –
COCCNC(=O)CSc1nc2cc3c(cc2c(=O)n1CCCC(=O)NCCc1ccc(OC)c(OC)c1)OCO3 | inconclusive: 2.31 µM [falling, partial curve, poor fit] | –
CCCCOc1ncnc2c1[nH]c1ccc(F)cc12 | active: 2.06 µM | –
CC(=O)Nc1ccc(N=Nc2ccccc2)cc1 | inconclusive: 10.3 µM [activator, partial curve, poor fit] | –
CCC(C)(C)NC(=O)C1CCC(CNS(=O)(=O)c2ccc3c(c2)CC(C)N3C(C)=O)CC1 (configuration not stated) | inconclusive: 29.1 µM [falling, single point] | –
O=C1CCCC(O)=C1C(C#Cc1ccccc1)C1=C(O)CCCC1=O | inactive | –

3 consecutive entries already listed:
Compound | Potency | activity change, negative = inhibition
Cc1cc(C)cc(NC(=O)Nc2c(Br)cnn2C)c1 | inactive | –
CSc1ccccc1NC(=O)c1cnc2sc(C)cn2c1=O | inconclusive: 1.84 µM [activator, partial curve, poor fit] | –
CC(C)=C1C2CCC1C1C(=O)N(c3nc(-c4ccc(F)cc4)c(C)s3)C(=O)C21 (configuration not stated) | inconclusive: 32.6 µM [falling, single point] | –
